Measured data: PubChem BioAssay AID1224830 (NIAID, 2016)
Purpose: 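Host factors that control LPS-induced TNF expression in human macrophages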 (primary screen). Cells: human THP-1 monocytic leukaemia cells, TNF dual-luciferase reporter clone, PMA-differentiated to macrophage-like cells. Reagents: siRNA pool against human genes, 50 nM. Timing: LPS for 4 h, given about 3 days after siRNA transfection. Treatment: bacterial LPS (TLR4 ligand), 10 ng/ml. Detection: 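TNF firefly reporter luminescence divided by renilla, normalised to the plate median, then turned into a robust z-score for each replicate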. Reading the numbers: TNF reporter robust z-score: higher = stronger TNF reporter response to LPS. Hit rule: 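Each well counts as active if its z-score is over 2.8 or under -1.5; controls are left without a call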.
Here is one part, drawn at random, of about 18,000 reagents tested. About 2,900 of all reagents (16%) were called active. 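Calls are made per well; low scores hint the gene aids the LPS response, high scores that it dampens it.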 Unmarked entries are inactive. Repeated entries: four replicate wells of each siRNA pool.

target gene | PubChem SID | TNF reporter robust z-score
STK17A | SID315453163 | 0.95
STK17A | SID315453163 | 0.26
STK17A | SID315453163 | 2.16
STK17A | SID315453163 | -1.05
WNK2 | SID315459108 | -0.28
WNK2 | SID315459108 | 0.26
WNK2 | SID315459108 | 1.19
WNK2 | SID315459108 | 1.52
CDKL2 | SID315452969 | -0.9
CDKL2 | SID315452969 | 0.93
CDKL2 | SID315452969 | -1.21
CDKL2 | SID315452969 | -0.67
GRPEL2 | SID315461963 | -0.33
GRPEL2 | SID315461963 | 0.06
GRPEL2 | SID315461963 | -0.49
GRPEL2 | SID315461963 | 0.26
CALHM4 | SID315463283 | -0.27
CALHM4 | SID315463283 | 0.79
CALHM4 | SID315463283 | 0.02
RPS23 | SID315451241 | 0.76
RPS23 | SID315451241 | 1.81
RPS23 | SID315451241 | 0.79
RPS23 | SID315451241 | 1.6
CBL | SID315447725 | -1.18
CBL | SID315447725 | 0.63
CBL | SID315447725 | 1.36
CBL | SID315447725 | 1.18
CSAG2 | SID315453411 | -1.51 (active)
CSAG2 | SID315453411 | -1.88 (active)
CSAG2 | SID315453411 | -1.49
CSAG2 | SID315453411 | -1.32
CSAG2 | SID315465193 | 0.27
CSAG2 | SID315465193 | 0.81
CSAG2 | SID315465193 | 0.74
CSAG2 | SID315465193 | 2.25
TRAPPC12 | SID315456481 | 0.28
TRAPPC12 | SID315456481 | 0.6
TRAPPC12 | SID315456481 | -0.27
TRAPPC12 | SID315456481 | -0.21
DPEP1 | SID315448359 | -0.39
DPEP1 | SID315448359 | 0.47
DPEP1 | SID315448359 | -0.41
DPEP1 | SID315448359 | -0.13
EEF1AKMT3 | SID315455536 | -1.4
EEF1AKMT3 | SID315455536 | -0.59
EEF1AKMT3 | SID315455536 | -1.24
EEF1AKMT3 | SID315455536 | -0.66
C22orf23 | SID315460435 | 0.04
C22orf23 | SID315460435 | 0.87
C22orf23 | SID315460435 | 0.43
C22orf23 | SID315460435 | 1.35
ZIM2 | SID315455371 | -0.45
ZIM2 | SID315455371 | 0.02
ZIM2 | SID315455371 | -0.36
ZIM2 | SID315455371 | -0.71
MAGED2 | SID315454453 | -1.37
MAGED2 | SID315454453 | -0.57
MAGED2 | SID315454453 | -0.55
MAGED2 | SID315454453 | -0.53
CSPG4 | SID315448142 | -0.1
CSPG4 | SID315448142 | 0.17
CSPG4 | SID315448142 | 0.14
CSPG4 | SID315448142 | 0.23
WSB2 | SID315457927 | -1.14
WSB2 | SID315457927 | 0.12
WSB2 | SID315457927 | -1.89 (active)
WSB2 | SID315457927 | -0.1
NFKBIL1 | SID315450237 | -0.03
NFKBIL1 | SID315450237 | 0.48
NFKBIL1 | SID315450237 | 0.14
NFKBIL1 | SID315450237 | -0.07
NT5C3A | SID315456583 | -1.9 (active)
NT5C3A | SID315456583 | -1.69 (active)
NT5C3A | SID315456583 | 0.11
NT5C3A | SID315456583 | -0.68
MFSD2A | SID315460542 | 2.03
MFSD2A | SID315460542 | 1.41
MFSD2A | SID315460542 | 0.1
MFSD2A | SID315460542 | 0.81
BAP1 | SID315452470 | -0.14
BAP1 | SID315452470 | 0.26
BAP1 | SID315452470 | -0.3
BAP1 | SID315452470 | 1.6
AR | SID315447377 | 1.01
AR | SID315447377 | -0.43
AR | SID315447377 | -0.04
AR | SID315447377 | 1.81
ZNF285 | SID315455862 | 0.1
ZNF285 | SID315455862 | -0.27
ZNF285 | SID315455862 | 0.49
ZNF285 | SID315455862 | -0.46
CCDC22 | SID315456072 | -0.09
CCDC22 | SID315456072 | -0.41
CCDC22 | SID315456072 | -0.4
CCDC22 | SID315456072 | 0.45
MRPL55 | SID315461788 | -1.1
MRPL55 | SID315461788 | 0.78
MRPL55 | SID315461788 | -1.22
MRPL55 | SID315461788 | 0.38
HBP1 | SID315455859 | 0.78
HBP1 | SID315455859 | 1.15
HBP1 | SID315455859 | 0.34
HBP1 | SID315455859 | 2.55
TAMM41 | SID315461909 | 1.19
TAMM41 | SID315461909 | 0.2
TAMM41 | SID315461909 | 1.05
TAMM41 | SID315461909 | 0.06
ARAP3 | SID315458918 | -0.58
ARAP3 | SID315458918 | 1.02
ARAP3 | SID315458918 | 1.28
ARAP3 | SID315458918 | -0.35

Targets above whose gene name begins with E or e:
target gene | PubChem SID | TNF reporter robust z-score
EEF1AKMT3 | SID315455536 | -1.4
EEF1AKMT3 | SID315455536 | -0.59
EEF1AKMT3 | SID315455536 | -1.24
EEF1AKMT3 | SID315455536 | -0.66
